The values that follow come from US20070172514A1, “Materials and methods for improving livestock productivity” (priority 2006, published 2007).

Structures are written as SMILES.

In the series the test system is swine. As to the kind of experiment: Sensory evaluation of pork from swine fed diets with Cysteamine HCl. Conditions: in words; 150 g per ton of feed. It is filed as in vivo.

Turning to `Cl.NCCS` [Cysteamine HCl, cysteamine hydrochloride], the “Sensory review of meat flavor and attributes vs swine without cysteamine hydrochloride” value was “no significant difference”.
